Values quoted from earlier work in PMC7115876 (Nature, 2020).

System: β1AR
Conditions: cited from earlier work

COc1ccc(CC(C)NCC(O)c2ccc(O)c(NC=O)c2)cc1 (stereo not shown) [formoterol]
agonist efficacy for the coupling of Gs: full agonist
